# For some of these results: What follows is the remainder of the data, with few or none of the hits. Results filed as inconclusive are left out. The list shows a part of the results, in another mix than the full data. The source made the active and inactive calls. Unless noted, calls come from the whole dose curve; as a rule, active = well fitted curve in either direction with a large enough effect (not every such curve was filed as active); inconclusive = small, poorly fitted or top-dose-only effect, or another doubt; inactive = flat fitted curve, though single readings scatter.
# Amino acid sequences for entries named in this document (tags omitted). A change or cut given only in a name is not applied to a line headed by its entry.
# UniProt P04150: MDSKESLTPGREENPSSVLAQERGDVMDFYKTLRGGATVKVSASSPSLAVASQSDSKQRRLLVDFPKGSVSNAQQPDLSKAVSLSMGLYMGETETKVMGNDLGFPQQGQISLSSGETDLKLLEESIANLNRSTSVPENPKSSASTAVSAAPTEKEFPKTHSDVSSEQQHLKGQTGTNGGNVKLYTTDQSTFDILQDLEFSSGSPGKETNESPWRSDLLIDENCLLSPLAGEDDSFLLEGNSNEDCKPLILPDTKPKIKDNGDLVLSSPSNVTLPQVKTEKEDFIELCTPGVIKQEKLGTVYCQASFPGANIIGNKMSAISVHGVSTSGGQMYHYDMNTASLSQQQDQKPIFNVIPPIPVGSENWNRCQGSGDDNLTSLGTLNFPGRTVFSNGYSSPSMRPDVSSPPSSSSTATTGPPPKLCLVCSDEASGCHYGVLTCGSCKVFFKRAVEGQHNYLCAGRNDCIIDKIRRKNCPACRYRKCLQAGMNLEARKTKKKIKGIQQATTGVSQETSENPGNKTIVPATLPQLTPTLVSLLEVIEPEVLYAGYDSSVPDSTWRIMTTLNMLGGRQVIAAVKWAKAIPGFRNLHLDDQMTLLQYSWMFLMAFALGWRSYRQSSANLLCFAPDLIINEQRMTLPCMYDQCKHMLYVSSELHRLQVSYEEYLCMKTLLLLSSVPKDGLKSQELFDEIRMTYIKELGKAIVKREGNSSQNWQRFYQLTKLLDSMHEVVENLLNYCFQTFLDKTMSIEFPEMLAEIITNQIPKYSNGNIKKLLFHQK
# UniProt Q07343: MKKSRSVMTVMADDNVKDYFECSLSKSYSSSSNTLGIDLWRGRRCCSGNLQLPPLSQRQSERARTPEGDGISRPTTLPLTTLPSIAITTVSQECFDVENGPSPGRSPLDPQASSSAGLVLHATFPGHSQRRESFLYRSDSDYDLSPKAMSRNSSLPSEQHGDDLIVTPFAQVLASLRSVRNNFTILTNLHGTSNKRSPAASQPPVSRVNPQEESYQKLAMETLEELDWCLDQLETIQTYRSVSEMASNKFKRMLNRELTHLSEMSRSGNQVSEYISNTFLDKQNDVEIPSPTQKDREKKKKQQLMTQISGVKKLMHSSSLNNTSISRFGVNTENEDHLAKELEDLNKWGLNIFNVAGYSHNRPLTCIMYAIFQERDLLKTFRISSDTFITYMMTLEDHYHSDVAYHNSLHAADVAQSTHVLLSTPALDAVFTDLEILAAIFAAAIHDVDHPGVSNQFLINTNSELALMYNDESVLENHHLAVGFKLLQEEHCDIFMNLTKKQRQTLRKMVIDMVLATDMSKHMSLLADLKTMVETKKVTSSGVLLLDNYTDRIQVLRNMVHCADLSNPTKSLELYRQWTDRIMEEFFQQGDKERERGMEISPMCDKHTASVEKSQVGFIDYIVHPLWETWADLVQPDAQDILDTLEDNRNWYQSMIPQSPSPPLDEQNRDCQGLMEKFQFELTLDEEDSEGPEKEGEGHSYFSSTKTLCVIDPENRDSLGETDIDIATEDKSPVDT
# UniProt Q99828: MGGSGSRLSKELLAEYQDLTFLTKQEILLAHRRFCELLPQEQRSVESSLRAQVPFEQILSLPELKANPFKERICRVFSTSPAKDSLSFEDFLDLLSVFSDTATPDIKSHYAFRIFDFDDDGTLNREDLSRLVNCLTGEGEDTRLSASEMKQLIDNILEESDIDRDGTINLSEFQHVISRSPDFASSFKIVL
# UniProt P07203, whole entry, looked up: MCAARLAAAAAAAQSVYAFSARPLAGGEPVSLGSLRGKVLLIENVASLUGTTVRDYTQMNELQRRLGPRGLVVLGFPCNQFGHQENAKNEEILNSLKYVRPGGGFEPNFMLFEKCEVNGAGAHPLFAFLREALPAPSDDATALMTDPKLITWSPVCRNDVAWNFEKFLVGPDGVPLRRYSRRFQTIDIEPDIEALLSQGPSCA
# UniProt P04062: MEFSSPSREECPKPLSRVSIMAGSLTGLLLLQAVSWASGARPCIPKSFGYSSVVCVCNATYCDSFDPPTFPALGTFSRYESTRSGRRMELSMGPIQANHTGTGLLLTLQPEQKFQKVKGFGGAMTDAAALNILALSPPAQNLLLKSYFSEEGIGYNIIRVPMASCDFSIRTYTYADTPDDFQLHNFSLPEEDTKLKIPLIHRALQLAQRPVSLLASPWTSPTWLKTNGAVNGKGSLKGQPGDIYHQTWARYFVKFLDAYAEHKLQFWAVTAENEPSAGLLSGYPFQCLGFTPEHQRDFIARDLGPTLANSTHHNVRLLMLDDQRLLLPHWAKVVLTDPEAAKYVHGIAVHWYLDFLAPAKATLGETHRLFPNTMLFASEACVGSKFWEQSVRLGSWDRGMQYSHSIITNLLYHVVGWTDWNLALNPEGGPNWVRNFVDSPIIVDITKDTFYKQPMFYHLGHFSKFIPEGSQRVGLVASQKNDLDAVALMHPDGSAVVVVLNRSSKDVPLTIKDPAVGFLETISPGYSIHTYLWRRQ
# Tests used:
# [1] = molecular target: Glucocorticoid receptor (Homo sapiens) (UniProt P04150); experiment: GR-GFP Redistribution (AID 450;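 active = compounds whose dose series gives a full or clear partial fitted curve of increased nuclear translocation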; note: potency is the fitted concentration of half-maximal effect); conditions: U2OS GR-GFP nuclear translocation, laser cytometry, 2 h
# [2] = molecular target: Glucocorticoid receptor (Homo sapiens) (UniProt P04150); experiment: GR-EFC Redistribution (AID 451; calls by dose curve; note: potency is the fitted concentration of half-maximal effect); conditions: CHO-K1 GR-EFC translocation, beta-gal luminescence, 2 h
# Method in brief: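 CHO-K1 cells expressing nuclear EA and GR-ED fragments of b-gal; compounds titrated up to 46 uM final, 2 h at 37 C. GR nuclear translocation read as complemented b-gal luminescence after 1 h RT detection.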
# [3] = molecular target: Mitogen-activated protein kinase 10 (Mus musculus) (UniProt Q61831); experiment: JNK3 AlphaScreen Assay (AID 530); conditions: JNK3 lysate, c-Jun phosphorylation; at 11.4 µM (top of the series) unless noted;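 note: kinase came from lysate of stimulated human HepG2 cells; signal reports phosphorylation of biotinylated GST-cJun 1-79 at Ser73 with 10 µM ATP; % is set by controls: 0 for no effect and ±100 for the full control effect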
# Method in brief: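 Pre-activated (IL-1β/TNFα) JNK3 in HepG2 lysates phosphorylates biotin-GST-cJun(1-79), 10 uM ATP; anti-phospho-cJun(Ser73) AlphaScreen read at room temperature, pH 7.6 Tris buffer. Compounds pre-incubated 15 min as titrations.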
# [4] = molecular target: 3',5'-cyclic-AMP phosphodiesterase 4B (Homo sapiens) (UniProt Q07343); experiment: qHTS Assay for Inhibitors of PDE-IV (AID 607; active = well fitted activation curve with a large enough effect in the main read-out, with a control signal flat, not every such curve was filed as active; note: % of control where 0% means no effect); conditions: HEK293 ACTOne CNG channel cells, membrane potential fluorescence; at 22.9 µM (top of the series)
# Method in brief: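 Cell-based read-out of cAMP via a modified cyclic nucleotide-gated channel and membrane potential dye (535/590 nm) in HEK293 cells expressing PDE4 endogenously. Compounds tested up to 22.9 uM final; 100 uM RO 20-1724 reference.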
# [5] = molecular target: Calcium and integrin-binding protein 1 (Homo sapiens) (UniProt Q99828); experiment: Primary qHTS for Identification of Calcium Integrin Binding Protein 1 (CIB1) Competitor (AID 1508620; active = well fitted inhibition curve with a large enough effect;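 note: GST tagged CIB1 binding a fluorescein labelled alphaIIb integrin peptide tracer; top concentration of the series differs between compounds; % is set by controls: 0 for no effect and ±100 for the full control effect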); conditions: CIB1-GST / FITC-alphaIIb peptide fluorescence polarization; at 114 µM (top of the series)
# Method in brief: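 Fluorescence polarization competition: GST-tagged CIB1 (1 uM final) preincubated with compound 15 min at room temperature, then FITC-labelled alphaIIb peptide (100 nM final) added. After 15 min at room temperature, polarization read at Ex 480/Em 540.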
# [6] = molecular target: Glutathione peroxidase 1 (Homo sapiens) (UniProt P07203); experiment: Primary qHTS Assay for Inhibitors of Recombinant Selenoprotein Glutathione Peroxidase 1 (GPX1) (AID 1845191; active = well fitted inhibition curve with a large enough effect; note: % is set by controls: 0 for no effect and ±100 for the full control effect; nearly all actives have a fitted effect of over 65% in size); conditions: recombinant GPX1, GR-coupled NADPH fluorescence, 15 min; activity, negative = inhibition: at 48.8 µM (top of the series)
# Method in brief: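 GR-coupled assay: compounds preincubated 30 min at room temperature with GPX1, then reaction started with CHP; final 10 nM GPX1, 1 mM GSH, 0.5 mM CHP, 0.5 mM NADPH, 100 nM GR, 0.01% BSA, pH 7.5 Tris buffer. NADPH fluorescence (340/450 nm) read at 0 and 15 min.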
# [7] = molecular target: Lysosomal acid glucosylceramidase (Homo sapiens) (UniProt P04062); experiment: Glucocerebrosidase-p2 (AID 348; in the data active = potency below about 10 µM; note: potency is the fitted concentration of half-maximal effect); conditions: purified GBA, blue fluorogenic substrate, 40 min
# Method in brief: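 Compounds titrated from 0.6 nM upwards against 0.2 nM enzyme in pH 5.9 citric acid/KH2PO4, taurocholate, tween-20; blue fluorogenic substrate 80 uM, 40 min room temperature, stopped and read Ex 365/Em 440 for AC50.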
# [8] = AP1 Signaling Pathway (AID 357); conditions: ME-180 (cervical carcinoma) AP-1-bla reporter, EGF-induced, beta-lactamase ratio, 5 h; at 7.69 µM (top of the series);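 note: ME-180 reporter cells stimulated with EGF at its EC50 level; % is set by controls: 0 for no effect and ±100 for the full control effect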
# Method in brief: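 Read-out was the 460nm/530nm emission ratio (excitation 405nm) after CCF4 loading for 2.5 hours at room temperature. Cells carried an AP-1-driven beta-lactamase reporter, were stimulated with EC50 EGF plus compound for 5 hours, and AC50 values came from titrations.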
# [9] = NFAT Signaling Pathway (AID 444); conditions: Jurkat NFAT-bla M1, carbachol, beta-lactamase ratio, 5 h; at 7.69 µM (top of the series);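 note: carbachol stimulus at about its EC50 of 1 µM final; % is set by controls: 0 for no effect and ±100 for the full control effect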
# Method in brief: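 Jurkat cells with NFAT-driven β-lactamase reporter and co-expressed M1 receptor, stimulated with carbachol (final 1 uM, ~EC50), compound titration, 5 h at 37 °C. CCF4 loaded 1 h at RT; 460/530 nm ratio gave %activity and AC50.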
# [10] = qHTS Assay for Lipid Storage Modulators (AID 1519; calls by dose curve); conditions: Drosophila S3 cells, BODIPY lipid droplet/cell ratio, laser cytometry, cells loaded with oleic acid
# Method in brief: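 Cells seeded at 5,000 per well were treated with compounds over a concentration series and loaded with oleic acid (400 uM, as added). Lipid droplet fluorescence (488 nm excitation, 500-530 nm channel) was read by laser-scanning cytometry and normalized to 20 uM Triacsin C.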
structure (smiles),measurement,setting,value
Cc1c(C(=O)NN2CCCCC2)nn(-c2ccc(Cl)cc2Cl)c1-c1ccc(I)cc1,Potency,[1],inactive: > 46 µM
same,Potency,[2],inactive: > 46 µM
same,"activity change, negative = inhibition",[3],inactive: -5.1% [at 57.1 µM]
same,activation (PDE inhibition),[4],inactive: 1.4%
CN([C@H]1c2cc(OCCCC(F)(F)F)ccc2OC(C)(C)[C@@H]1O)S(C)(=O)=O,"activity change, negative = inhibition",[5],inactive: -0.897%
same,"activity, negative = inhibition",[6],inactive: 0.624%
COc1ccc2c(c1)c1c(C)c3cnccc3c(C)c1n2CCCN,Potency,[7],inactive: > 11.4 µM
same,"activity change, negative = inhibition",[3],inactive: -5.27%
same,activation (PDE inhibition),[4],inactive: -0.785%
NCCN1C(=O)c2ccccc2[C@@]1(O)c1ccc(Cl)cc1,Potency,[7],inactive: > 11.4 µM
same,"activity change, negative = inhibition",[8],inactive: 6.13%
same,"activity change, negative = inhibition",[9],inactive: 4.09%
same,"activity change, negative = inhibition",[3],inactive: -1.9%
same,activation (PDE inhibition),[4],inactive: -2.64%
Cc1cccc(CCN2CCC(C(=O)c3ccc(NS(C)(=O)=O)cc3)CC2)n1,Potency,[1],inactive: > 46 µM
same,Potency,[2],inactive: > 46 µM
same,"activity change, negative = inhibition",[10]; at 57.5 µM (top of the series),inactive: -1.88%
same,max response,[10]; measured here: cell count channel max response,3.45%
same,max response,[10]; measured here: lipid channel max response,2.65%

# — PubChem BioAssay (NCATS)
